Measurements reported in patent US12209086B2, “FGFR3 inhibitor compounds” (ELI LILLY AND COMPANY, priority 2021, dated 2025).
Some of these results come from one statement about several compounds together.

Amino acid sequences for entries named in this document (tags omitted). Residues count along the entry.
UniProt P22607, 23-806: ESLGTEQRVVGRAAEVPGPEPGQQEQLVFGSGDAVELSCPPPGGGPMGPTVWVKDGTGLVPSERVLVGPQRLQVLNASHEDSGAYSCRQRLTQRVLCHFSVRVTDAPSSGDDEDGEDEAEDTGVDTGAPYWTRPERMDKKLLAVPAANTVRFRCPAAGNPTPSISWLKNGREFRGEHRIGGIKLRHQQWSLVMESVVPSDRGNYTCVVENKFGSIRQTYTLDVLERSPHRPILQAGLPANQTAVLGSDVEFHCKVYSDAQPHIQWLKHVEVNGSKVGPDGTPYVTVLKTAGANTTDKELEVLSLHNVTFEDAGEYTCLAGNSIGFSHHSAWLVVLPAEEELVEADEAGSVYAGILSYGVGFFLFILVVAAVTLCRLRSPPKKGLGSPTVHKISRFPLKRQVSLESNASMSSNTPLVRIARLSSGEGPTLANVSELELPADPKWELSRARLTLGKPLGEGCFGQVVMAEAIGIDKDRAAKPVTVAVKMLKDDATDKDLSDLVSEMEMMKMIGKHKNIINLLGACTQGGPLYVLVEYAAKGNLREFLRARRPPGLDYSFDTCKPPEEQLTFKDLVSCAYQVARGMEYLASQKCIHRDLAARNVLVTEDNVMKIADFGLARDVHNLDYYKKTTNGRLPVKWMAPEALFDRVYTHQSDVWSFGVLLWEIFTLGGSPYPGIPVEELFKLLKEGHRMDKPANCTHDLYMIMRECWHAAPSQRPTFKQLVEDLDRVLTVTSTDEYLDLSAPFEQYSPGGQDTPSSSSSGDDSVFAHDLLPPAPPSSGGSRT

What follows are compounds tested against T1, FGFR3 protein (Homo sapiens, UniProt P22607) (assay: FGFR3 enzyme assay (KinEASE-TK HTRF kinase assay)). Conditions: 0.25 nM enzyme, ATP at Km, 15 min pre-incubation on ice, 30 min at 30° C.
T1 construct: purchased Reaction Biology 1068
Type: biochemical
Description: FGFR3 and FGFR1 Enzyme Assay
Enzyme activity was monitored using the KinEASE™-TK Assay Kit (Cisflio, Cat. No. 62TK0PEC) according to the manufacturer's instructions. All assays were performed at the respective KmATP for each kinase in KinEASE™ Kinase Buffer.
Titration of compounds were performed in a half-log manner in 100% dimethyl sulfoxide (DMSO) starting at 1 uM. Prior to the initiation of the reaction by adenosine triphosphate (ATP), FGFR1 protein and compounds were pre-incubated for 15 minutes at room temperature, and FGFR3 protein and compounds were pre-incubated on ice for 15 minutes. Reactions proceeded for 30 min at 30° C. Plates were quenched by the addition of the Anti-TK cryptate antibody/Streptavidin-XL665 mixture.
Ratios were converted to a percent of control (POC) using a ratiometric emission factor. One hundred POC was determined using no test compound, and 0 POC was determined in the presence of 1 uM of an appropriate control inhibitor.

SMILES	IC50 [nM]
Cc1c(-c2cc(OCC(O)c3ccc(F)cn3)c3c(Cl)cnn3c2)nnn1C1CCN(C#N)CC1 (single isomer, unassigned) [Example 154, 4-[4-[3-Chloro-4-[2-(5-fluoro-2-pyridyl)-2-hydroxy-ethoxy]pyrazolo[1,5-a]pyridin-6-yl]-5-methyl-triazol-1-yl]piperidine-1-carbonitrile]	< 350
Cc1c(-c2cc(OCC(O)c3ccc(F)cn3)c3c(Cl)cnn3c2)nnn1C1CCN(C#N)CC1 (single isomer, unassigned) [Example 155, 4-[4-[3-Chloro-4-[2-(5-fluoro-2-pyridyl)-2-hydroxy-ethoxy]pyrazolo[1,5-a]pyridin-6-yl]-5-methyl-triazol-1-yl]piperidine-1-carbonitrile]	< 350
Cc1c(-c2cc(OCC(C)(O)c3ccc(F)cn3)c3c(Cl)cnn3c2)nnn1C1CCN(C#N)CC1 (single isomer, unassigned) [Example 156, 4-[4-[3-Chloro-4-[2-(5-fluoro-2-pyridyl)-2-hydroxy-propoxy]pyrazolo[1,5-a]pyridin-6-yl]-5-methyl-triazol-1-yl]piperidine-1-carbonitrile]	< 350
Cc1c(-c2cc(OCC(C)(O)c3ccc(F)cn3)c3c(F)cnn3c2)nnn1C1CCN(C#N)CC1 (single isomer, unassigned) [Example 157, 4-[4-[3-Fluoro-4-[2-(5-fluoro-2-pyridyl)-2-hydroxy-propoxy]pyrazolo[1,5-a]pyridin-6-yl]-5-methyl-triazol-1-yl]piperidine-1-carbonitrile]	< 350
Cc1c(-c2cc(OC(COC(F)(F)F)c3ccc(F)cn3)n3c(C#N)cnc3c2)nnn1C1CCN(C#N)CC1 (single isomer, unassigned) [Example 158, 7-[1-(1-Cyano-4-piperidyl)-5-methyl-triazol-4-yl]-5-[1-(5-fluoro-2-pyridyl)-2-(trifluoromethoxy)ethoxy]imidazo[1,2-a]pyridine-3-carbonitrile]	< 350
COCCOc1nc(C(C)Oc2cc(-c3nnn(C4CCN(C#N)CC4)c3C)cc3ncc(C#N)n23)ccc1F (single isomer, unassigned) [Example 159, 7-[1-(1-Cyano-4-piperidyl)-5-methyl-triazol-4-yl]-5-[1-[5-fluoro-6-(2-methoxyethoxy)-2-pyridyl]ethoxy] imidazo [1,2-a]pyridine-3-carbonitrile]	< 350
Cc1c(-c2cc(OC(C)c3cncc(OC(F)(F)F)c3)n3c(C#N)cnc3c2)nnn1C1CCN(C#N)CC1 (single isomer, unassigned) [Example 160, 7-[1-(1-Cyano-4-piperidyl)-5-methyl-triazol-4-yl]-5-[1-[5-(trifluoromethoxy)-3-pyridyl]ethoxy] imidazo [1,2-a]pyridine-3-carbonitrile]	< 350
Cc1c(-c2cc(OC(C)c3cccc(S(C)(=O)=O)c3)c3c(C#N)cnn3c2)cnn1C1CCN(C#N)CC1 (single isomer, unassigned) [Example 165, 6-[1-(1-Cyano-4-piperidyl)-5-methyl-pyrazol-4-yl]-4-[1-(3-methylsulfonylphenyl)ethoxy]pyrazolo[1,5-a]pyridine-3-carbonitrile]	< 350
COC1(C(Oc2cc(-c3nnn(C4CCN(C#N)CC4)c3C)cc3ncc(C#N)n23)c2ccc(F)cn2)CC1 (single isomer, unassigned) [Example 167, 7-[1-(1-Cyano-4-piperidyl)-5-methyl-triazol-4-yl]-5-[(5-fluoro-2-pyridyl)-(1-methoxycyclopropyl)methoxy]imidazo[1,2-a]pyridine-3-carbonitrile]	< 350
COc1cc(-c2cnn(C3CCN(C4CN(C#N)C4(C)C)CC3)c2C)cn2ncc(C#N)c12 (single isomer, unassigned) [Example 172, 3-[4-(4-[3-Cyano-4-methoxypyrazolo[1,5-a]pyridin-6-yl]-5-methylpyrazol-1-yl)piperidin-1-yl]-2,2-dimethylazetidine-1-carbonitrile]	< 350
COc1cc(-c2cnn(C3CN(C4CCN(C#N)CC4(F)F)C3)c2C)cn2ncc(C#N)c12 (single isomer, unassigned) [Example 179, 4-[3-(4-[3-Cyano-4-methoxypyrazolo[1,5-a]pyridin-6-yl]-5-methylpyrazol-1-yl)azetidin-1-yl]-3,3-difluoropiperidine-1-carbonitrile]	< 350
CC[C@@H](Oc1cc(-c2nnn(C3CCN(C#N)CC3)c2C)cc2ncc(C#N)n12)c1ccccn1 (single isomer, unassigned) [Example 210]	< 350
COCC(Oc1cc(-c2nnn(C3CCN(C#N)CC3)c2C)cc2ncc(C#N)n12)c1ccccn1 (single isomer, unassigned) [Example 253, 7-[1-(1-Cyano-4-piperidyl)-5-methyl-triazol-4-yl]-5-[2-methoxy-1-(2-pyridyl)ethoxy] imidazo[1,2-a]pyridine-3-carbonitrile]	< 350
Cc1c(-c2cc(OC(CO)c3ccc(F)cn3)c3c(Cl)cnn3c2)nnn1[C@H]1C[C@@H](N2CC3COCC(C2)N3C#N)C1 (single isomer, unassigned) [Example 280]	< 350
Cc1c(-c2cc(O[C@H](C)c3ccccn3)n3c(C#N)cnc3c2)nnn1C1CCN(C#N)C(C2CC2)C1 (single isomer, unassigned) [Example 281]	< 350
Cc1c(-c2cc(OC(CNCC(F)F)c3ccc(F)cn3)c3c(Cl)cnn3c2)nnn1C1CCN(C#N)CC1 (single isomer, unassigned) [Example 298, 4-[4-[3-Chloro-4-[2-(2,2-difluoroethylamino)-1-(5-fluoro-2-pyridyl)ethoxy]pyrazolo[1,5-a]pyridin-6-yl]-5-methyl-triazol-1-yl]piperidine-1-carbonitrile]	< 350
COc1cc(-c2cnn(C3CN(C4CN(C#N)C(C)(C)C4)C3)c2C)cn2ncc(C#N)c12 (single isomer, unassigned; isomer 1) [Example 39, 4-[3-(4-[3-Cyano-4-methoxypyrazolo[1,5-a]pyridin-6-yl]-5-methylpyrazol-1-yl)azetidin-1-yl]-2,2-dimethyl-pyrrolidine-1-carbonitrile, Isomer 1]	< 350
Cc1c(-c2cc(OC(C)c3cncc(C(F)(F)F)c3)n3c(C#N)cnc3c2)nnn1C1CCN(C#N)CC1 (single isomer, unassigned; isomer 1) [Example 41, 7-[1-(1-Cyano-4-piperidyl)-5-methyl-triazol-4-yl]-5-[1-[5-(trifluoromethyl)-3-pyridyl]ethoxy]imidazo[1,2-a]pyridine-3-carbonitrile, Isomer 1]	< 350
Cc1c(-c2cc(OC(CO)c3ccc(F)cn3)c3c(C#N)cnn3c2)cnn1C1CCN(C#N)CC1 (single isomer, unassigned; isomer 1) [Example 43, 6-[1-(1-Cyano-4-piperidyl)-5-methyl-pyrazol-4-yl]-4-[1-(5-fluoro-2-pyridyl)-2-hydroxy-ethoxy]pyrazolo[1,5-a]pyridine-3-carbonitrile, Isomer 1]	< 350
Cc1c(-c2cc(OC(c3ccc(F)cn3)C(F)(F)F)n3c(C#N)cnc3c2)nnn1C1CCN(C#N)CC1 (single isomer, unassigned; isomer 1) [Example 48, 7-[1-(1-Cyano-4-piperidyl)-5-methyl-triazol-4-yl]-5-[2,2,2-trifluoro-1-(5-fluoro-2-pyridyl)ethoxy]imidazo[1,2-a]pyridine-3-carbonitrile, Isomer 1]	< 350
COCC(Oc1cc(-c2nnn(C3CCN(C#N)CC3)c2C)cc2ncc(C#N)n12)c1ccc(F)cn1 (single isomer, unassigned; isomer 1) [Example 49, 7-[1-(1-Cyano-4-piperidyl)-5-methyl-triazol-4-yl]-5-[1-(5-fluoro-2-pyridyl)-2-methoxy-ethoxy]imidazo[1,2-a]pyridine-3-carbonitrile, Isomer 1]	< 350
CCC(Oc1cc(-c2nnn(C3CCN(C#N)CC3)c2C)cc2ncc(C#N)n12)c1ccc(F)cn1 (single isomer, unassigned; isomer 1) [Example 51, 7-[1-(1-Cyano-4-piperidyl)-5-methyl-triazol-4-yl]-5-[1-(5-fluoro-2-pyridyl)propoxy]imidazo[1,2-a]pyridine-3-carbonitrile, Isomer 1]	< 350
Cc1c(-c2cc(OC(C3CCOCC3)C(F)(F)F)c3c(C#N)cnn3c2)cnn1C1CCN(C#N)CC1 (single isomer, unassigned; isomer 1) [Example 55, 4-(4-[3-Cyano-4-[2,2,2-trifluoro-1-(oxan-4-yl)ethoxy]pyrazolo[1,5-a]pyridin-6-yl]-5-methylpyrazol-1-yl)piperidine-1-carbonitrile, Isomer 1]	< 350
Cc1c(-c2cc(OC3c4ncccc4CC3(F)F)c3c(C#N)cnn3c2)nnn1C1CCN(C#N)CC1 (single isomer, unassigned; isomer 1) [Example 57, 4-(4-[3-Cyano-4-[(6,6-difluoro-6,7-dihydro-5H-cyclopenta[b]pyridin-7-yl)oxy]pyrazolo[1,5-a]pyridin-6-yl]-5-methyl-1H-1,2,3-triazol-1-yl)piperidine-carbonitrile, Isomer 1]	< 350
COc1cc(-c2cnn(C3CN(C#N)C(C)(C)C3)c2C)cn2ncc(C#N)c12 (single isomer, unassigned; isomer 1) [Example 59, 4-(4-[3-Cyano-4-methoxypyrazolo[1,5-a]pyridin-6-yl]-5-methylpyrazol-1-yl)-2,2-dimethylpyrrolidine-1-carbonitrile, Isomer 1]	< 350
